# Values joined by “and” are separate entries in the source; they are usually repeats but may differ in a detail not shown here. Identical values can stand only once. Out of some 300,000 compounds screened, about 5,400 (1.8%) were called active. This list was built around the results that the source calls inconclusive (neither active nor inactive); the mix of calls is not that of the screen. Calls follow the shape of the full dose curve; tested in HEK293 cells. Where the call is inconclusive, the potency comes from a doubtful curve fit.
# Test: qHTS for inhibitors of binding or entry into cells for Marburg Virus
# Conditions: Marburg virus pseudotyped entry inhibition, cell reporter; activity change, negative = inhibition: at 37.8 µM (top of the series) unless noted
# % is scaled to controls: 0 for no effect and ±100 for the full control effect; potency is read from the fitted curve at half-maximal effect.
SMILES,Potency,"activity change, negative = inhibition"
CCOc1ccc(NS(=O)(=O)c2ccc(N)cc2)cc1,"inconclusive: 1.16 µM [inhibitor, partial curve, poor fit]",–
COC(=O)c1ccccc1NC(=S)NC(NC(=O)c1ccccc1[N+](=O)[O-])C(Cl)(Cl)Cl (stereo unspecified),–,inactive: -3.48%
O=[N+]([O-])c1cccc(NP(=O)(N2CC2)N2CC2)c1,"inconclusive: 7.08 µM [inhibitor, full curve, poor fit]",–
COc1ccc(-n2nc(C(=O)N3CCC(N4CCCCC4)CC3)c3c4ccccc4n(C)c3c2=O)cc1,"inconclusive: 11.2 µM [inhibitor, partial curve, poor fit]",–
CC1(C)CC(=O)C2=C(C1)OC(=O)C2(NC(=O)c1cccs1)C(F)(F)F (stereo unspecified),"inconclusive: 0.501 µM [inhibitor, full curve, poor fit]",–
O=C(Nc1nc(-c2ccccc2)cs1)C1CCCO1 (stereo unspecified),–,inactive: 15.9%
CCOC(=O)/C(=C\C=C\c1ccccc1)NC(=O)c1ccccc1,"inconclusive: 35.5 µM [inhibitor, single point]",–
Cc1cccc2c1N(CCCOc1ccccc1)C(=O)C2=O,–,inactive: 0.947%
CCOC(=O)COc1ncn(-c2ccccc2)n1,–,inactive: 7.69%
Clc1cccc(Cl)c1C[n+]1cccc2ccccc21,"inconclusive: 35.5 µM [inhibitor, single point]",–
O=C(CCNC(=O)Cn1ccc2ccccc2c1=O)NCCc1ccccc1Cl,"inconclusive: 0.82 µM [activator, partial curve, poor fit]",–
O=C1CC(N2CCN(c3cccc(C(F)(F)F)c3)CC2)C(=O)N1c1ccc(F)cc1 (stereo unspecified),"inconclusive: 0.58 µM [activator, full curve, poor fit]",–
C=CCNC(=O)N1CCc2nc(-c3ccc(OC)cc3C)c3c(c2C1)CO[C@@H](c1ccccc1)C3,inactive,–
Cc1nnnn1/C(=C\c1ccccc1)C(=O)OCC(=O)NC(C)(C)C,active: 6.31 µM,–
Cc1ccc(NC(=O)c2oc3ccccc3c2NC(=O)C2CCCO2)cc1C (stereo unspecified),"inconclusive: 25.1 µM [inhibitor, partial curve, poor fit]",–
CC1(CCc2ccccc2)NC(=O)NC1=O (stereo unspecified),"inconclusive: 31.6 µM [activator, single point]",–
NS(=O)(=O)c1ccc(CNC(=O)/C=C/c2cccc(Cl)c2)cc1,–,inactive: 26.6%
Cc1onc(-c2ccccc2Cl)c1C(=O)Nc1ccc(Br)cc1,"inconclusive: 15.8 µM [inhibitor, partial curve, poor fit]",–
CCN1CCN(c2nc(Nc3cc(OC)ccc3OC)nc(Nc3cc(OC)ccc3OC)n2)CC1,"inconclusive: 5.62 µM [inhibitor, single point]",–
COc1ccc(OC)c(NC(=O)c2nnn(Cc3ccccc3C)c2N)c1,"inconclusive: 14.6 µM [inhibitor, partial curve, poor fit]",–
CCCc1ccc(C(=O)Cn2nc(C(=O)O)c3ccccc3c2=O)cc1,"inconclusive: 35.5 µM [inhibitor, single point]",–
c1ccc(-n2c(-c3ccco3)nnc2N2CCOCC2)cc1,–,inactive: 10.1%
Cc1ccc2oc(=O)c3cc(C(=O)N4CCN(c5ccccc5)CC4)sc3c2c1,–,inactive: 11% [at 46.1 µM]
COc1cc(SC)ccc1C(=O)N1CCCCCC1,–,inactive: 8.71%

SMILES,Potency,"activity change, negative = inhibition"
O=C(C1CC1)N1CCc2cc(Br)cc(S(=O)(=O)NCc3ccccn3)c21,–,inactive: 5.66%
O=c1[nH]c(=S)n(Cc2ccc(F)cc2)c(O)c1C=NCCCn1ccnc1,"inconclusive: 0.708 µM [activator, single point]",–
NC(=S)c1ncc(C(F)(F)F)cc1Cl,–,inactive: 15.9%
Cn1nnnc1SCCCNCc1ccc(-c2ccc(Br)cc2)o1,–,inactive: 3.65% [at 46.1 µM]
CCN(CC)S(=O)(=O)c1ccc(N2CCN(CCO)CC2)nc1,–,inactive: 18%
COc1ccccc1CNC(=O)CCn1c(=O)c2ccccc2n(CC(=O)Nc2ccc(C)cc2)c1=O,"inconclusive: 3.55 µM [activator, single point]",–
Cn1cccc1/C=C1\SC(=S)N(NC(=O)c2ccc(F)cc2)C1=O,"inconclusive: 6.31 µM [activator, partial curve, poor fit]",–
O=C(NN1C(=O)c2ccccc2NC1c1ccccc1OCc1ccccc1)c1ccncc1 (stereo unspecified),–,inconclusive: 16.6% [activator]
CCCCCC(=O)N/N=C(\C)c1ccccn1,active: 7.08 µM,–
Cc1nc(-c2nc(-c3c(C(=O)NNC(=O)Nc4cccc(Cl)c4)noc3C)cs2)cs1,"inconclusive: 1.26 µM [activator, full curve]",–
COc1ccc(CN(Cc2cc3ccc(C)cc3[nH]c2=O)Cc2nnnn2C2CCCC2)cc1,"inactive and inconclusive: 29.1 µM [inhibitor, single point]",–
COc1ccccc1NC(=O)N1CCOCC1,–,inactive: 16.4%
CCCSc1nc2sc3c(c2c(=O)n1-c1ccccc1)CCC(C)C3 (stereo unspecified),–,inactive: -4.14% [at 46.1 µM]
N#CCSc1nnc(CNc2cccc(Cl)c2)o1,"inconclusive: 0.184 µM [inhibitor, single point]",–
CCOC(=O)c1ccc(N=Cc2c(O)n(-c3ccccc3F)c(=S)[nH]c2=O)cc1,"inconclusive: 1.16 µM [inhibitor, single point]",–
CCOC(=O)C1=NNC(C(=O)c2ccc(C)cc2)C1c1ccc(OC)cc1 (stereo unspecified),"inconclusive: 1.46 µM [inhibitor, full curve, poor fit]",–
CCOC(=O)c1c(C(F)(F)F)cc(-c2ccc(F)cc2)nc1C,"inconclusive: 5.62 µM [activator, single point]",–
CCOc1ccccc1C1C2C(=O)N(c3ccccc3)C(=O)C2ON1c1ccccc1 (stereo unspecified),–,inactive: 4.83%
Cc1ccc(N(Cc2ccccc2)C(=O)c2cccc(S(=O)(=O)N3CCN(C)CC3)c2)cc1,–,inactive: -21.4%
Cc1cccc(C(=O)OCc2cncs2)c1,"inconclusive: 2.24 µM [activator, full curve, poor fit]",–
COc1ccc(C2=NN(CN3C(=O)C(=O)c4ccccc43)C(c3ccc(C)cc3)C2)cc1 (stereo unspecified),–,inactive: -9.25%
Cc1cc(C)c2[nH]c(=O)c(C(c3nnnn3Cc3ccc4c(c3)OCO4)N3CCCCC3)cc2c1 (stereo unspecified),"inconclusive: 35.5 µM [inhibitor, single point]",–
O=C(CSc1nccn1-c1cccc(F)c1)NC1CCCC1,"inconclusive: 35.5 µM [activator, single point]",–
Cc1ccc(C)c(-c2nnc(NC(=O)c3ccc([N+](=O)[O-])o3)o2)c1,–,inactive: -16.2%

SMILES,Potency,"activity change, negative = inhibition"
CC(Nc1ccccc1CO)C(=O)Nc1cccc(Cl)c1Cl (stereo unspecified),"inconclusive: 2.24 µM [inhibitor, full curve, poor fit]",–
O=C(c1cn(-c2ccccc2)nc1-c1ccc(F)cc1)N1CCCCC1,"inconclusive: 8.91 µM [inhibitor, partial curve]",–
O=C(Nc1nccs1)[C@@H]1CCCN1S(=O)(=O)c1ccccc1F,"inconclusive: 35.5 µM [inhibitor, partial curve, poor fit]",–
N#CC1=C(N)Oc2cc(N)ccc2C1c1ccccc1F (stereo unspecified),"inconclusive: 6.31 µM [inhibitor, full curve, poor fit]",–
N#CC1(C#N)[C@@H](C(=O)C23CC4CC(CC(C4)C2)C3)C12CCOCC2,"inconclusive: 35.5 µM [activator, single point]",–
CC1(C)C2CCC1(CS(=O)(=O)Nc1ccc(S(=O)(=O)NC3CCCCC3)cc1)C(=O)C2 (stereo unspecified),"inconclusive: 0.355 µM [activator, partial curve, poor fit]",–
COc1ccc(-c2cc([N+](=O)[O-])ccc2OCC(=O)N(C)CC(=O)Nc2ccc(C)cc2)cc1,"inconclusive: 17.8 µM [inhibitor, single point]",–
Fc1ccc(-c2nn(-c3ccccc3)cc2CNCc2ccccc2)cc1,"inconclusive: 7.08 µM [inhibitor, partial curve, poor fit]",–
CCN1C(N(C)CCOC)=NC(c2cccc(F)c2)C(C(=O)OC)=C1C (stereo unspecified),–,inactive: -24% [at 14.2 µM]
CSc1nc(N)c(C#N)c(-c2ccccc2Cl)c1C#N,"inconclusive: 11.2 µM [inhibitor, partial curve, poor fit]",–
Cc1nc(CSc2nnc(N)s2)cs1,"inconclusive: 4.47 µM [activator, single point]",–
C/C(N)=C(/C#N)C(=O)CSc1nnc(-c2ccccc2Br)o1,active: 6.31 µM,–
C=CCC12C=C(OC)C(=O)C(C1=O)C1c3ccccc3CC12 (stereo unspecified),–,inactive: 7.9% [at 14.2 µM]
COc1ccc(C(=O)OCC(=O)NC2CC2)cc1S(=O)(=O)N(C)Cc1ccccc1,"inconclusive: 1.41 µM [activator, partial curve]",–
CCC(C)(C)NC(=O)C(c1ccc(OC)cc1)N(Cc1ccccc1)C(=O)CCC(=O)Nc1cc(C)on1 (stereo unspecified),"inconclusive: 22.4 µM [inhibitor, partial curve, poor fit]",–
Cc1csc(NC(=O)CSc2sc3c(O)cc(=O)[nH]c3c2C#N)n1,–,inactive: -5.52% [at 46.1 µM]
Clc1nc(-c2ccccn2)nc2scc(-c3ccccc3)c12,"inconclusive: 0.82 µM [activator, single point]",–
O=[N+]([O-])c1ccc(/C=N/Nc2nc(N3CCCCCC3)nc(N3CCCCCC3)n2)o1,"inconclusive: 10 µM [inhibitor, single point]",–
COCCn1c(C)cc(C(=O)COC(=O)c2cc3c(s2)CCC3)c1C,–,inactive: 20.8% [at 46.1 µM]
O=c1c2sccc2n(Cc2cc(=O)n3ccccc3n2)c(=O)n1-c1ccccc1,–,inactive: -12.9%
CC(C)(C)CC(=O)Nc1ccc(-c2cn3cccnc3n2)cc1,–,inactive: -0.406%
Cc1nnc(C)n1/N=C/c1ccc(O)cc1,–,inactive: 1.61%
CCc1ccc(C2=CC(c3cc(Br)ccc3F)n3ncnc3N2)cc1 (stereo unspecified),"inconclusive: 1.3 µM [inhibitor, full curve, poor fit]",–
